From patent publication US20250079000A1, “METHODS AND MARKERS FOR DIAGNOSIS OF PARKINSON'S DISEASE” (Berg LLC, priority 2021, published 2025)

Assay: Box plots of biomarker level in plasma, PD vs control
Design: species or system human
Conditions: all subjects, male subjects only and female subjects only

Compound	Biomarker level in PD vs. control samples
CC(=O)NCCCCN [NAP, N-acetyl putrescine]	increased
CCCCC(=O)C(=O)O [2-ketohexanoic acid]	decreased
